Data source: PubChem BioAssay AID1259405 (NCATS, 2018)
Here is an unselected part of about 50,000 deposited reagents. About 4,000 of them (8%) count as active. 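Mouse siRNA library applied to hamster cells; one well for each siRNA.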 Unmarked entries are inactive. The numbers tell different reagents against one gene apart.

- Purpose: 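Mouse-designed siRNAs used to find CHO productivity engineering targets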 (primary screen)
- Cell system: Chinese hamster CHO-K1 ovary cells with stable secreted eGFP expression
- Reagent: single siRNA against mouse genes, 0.8 pmol siRNA per well (2 µl of 400 nM stock)
- Duration: 3 days
- Measurement: 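Percent of the per-plate non-targeting control median for intracellular GFP per well by laser scanning cytometry and for cell viability by ATP luminescence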
- Direction: GFP, % of control: higher = more GFP per well, higher productivity; viability (ATP), % of control: higher = more viable cells (more ATP)
- Hit rule: 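Called active when intracellular GFP, relative to negative control, is at or above 120%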

Psmg3 (proteasome (prosome, macropain) assembly chaperone 3) #1 showed GFP, % of control 110; viability (ATP), % of control 93.9.
After knock-down of Psmg3 (proteasome (prosome, macropain) assembly chaperone 3) #2 the results were GFP, % of control 90.7; viability (ATP), % of control 90.1.
Psmg3 (proteasome (prosome, macropain) assembly chaperone 3) #3 gave GFP, % of control 45.1; viability (ATP), % of control 62.4.
Against Zbp1 (Z-DNA binding protein 1) #1 the deposit lists GFP, % of control 69.8; viability (ATP), % of control 53.
Silencing of Zbp1 (Z-DNA binding protein 1) #2 resulted in: GFP, % of control 84.7; viability (ATP), % of control 49.4.
With knock-down of Zbp1 (Z-DNA binding protein 1) #3 the results were GFP, % of control 99.6; viability (ATP), % of control 118.
Mff (mitochondrial fission factor) #1 gave GFP, % of control 53.7; viability (ATP), % of control 48.8.
Mff (mitochondrial fission factor) #2 scored GFP, % of control 111; viability (ATP), % of control 101.
With knock-down of Mff (mitochondrial fission factor) #3 the results were GFP, % of control 141 (active); viability (ATP), % of control 144.
Frrs1 (ferric-chelate reductase 1) #1 scored GFP, % of control 85.6; viability (ATP), % of control 77.5.
Silencing of Frrs1 (ferric-chelate reductase 1) #2 resulted in: GFP, % of control 66.3; viability (ATP), % of control 84.5.
Silencing of Frrs1 (ferric-chelate reductase 1) #3 resulted in: GFP, % of control 66.2; viability (ATP), % of control 66.2.
For Creg2 (cellular repressor of E1A-stimulated genes 2) #1, the values are GFP, % of control 81.1; viability (ATP), % of control 92.2.
Against Creg2 (cellular repressor of E1A-stimulated genes 2) #2, the entry reads GFP, % of control 67.7; viability (ATP), % of control 61.7.
Against Creg2 (cellular repressor of E1A-stimulated genes 2) #3, the entry reads GFP, % of control 97.2; viability (ATP), % of control 88.
Ccdc158 (coiled-coil domain containing 158) #1 gave GFP, % of control 80.2; viability (ATP), % of control 71.6.
Silencing of Ccdc158 (coiled-coil domain containing 158) #2 resulted in: GFP, % of control 50.1; viability (ATP), % of control 44.5.
Against Ccdc158 (coiled-coil domain containing 158) #3, the entry reads GFP, % of control 85.4; viability (ATP), % of control 85.4.
Or5d18 (olfactory receptor family 5 subfamily D member 18) #1 scored GFP, % of control 56.5; viability (ATP), % of control 56.9.
For Or5d18 (olfactory receptor family 5 subfamily D member 18) #2, the values are GFP, % of control 102; viability (ATP), % of control 81.6.
Or5d18 (olfactory receptor family 5 subfamily D member 18) #3 showed GFP, % of control 51.3; viability (ATP), % of control 57.2.
Against Sybu (syntabulin (syntaxin-interacting)) #1, the entry reads GFP, % of control 99.5; viability (ATP), % of control 97.4.
Sybu (syntabulin (syntaxin-interacting)) #2 showed GFP, % of control 78.1; viability (ATP), % of control 81.7.
Sybu (syntabulin (syntaxin-interacting)) #3 showed GFP, % of control 93.5; viability (ATP), % of control 99.9.
Against Or6c74 (olfactory receptor family 6 subfamily C member 74) #1, the entry reads GFP, % of control 32.7; viability (ATP), % of control 41.3.
Against Or6c74 (olfactory receptor family 6 subfamily C member 74) #2, the values are GFP, % of control 84.9; viability (ATP), % of control 54.6.
Or6c74 (olfactory receptor family 6 subfamily C member 74) #3 gave GFP, % of control 73.5; viability (ATP), % of control 69.7.

Records above marked active:
Mff (mitochondrial fission factor) #3 → GFP, % of control: 141 (active); viability (ATP), % of control: 144
